Measured values: PMC12828796

By UniProt entry, the sequences of proteins in these tests, tags left out. Where a name states a change or a piece, a line headed by the entry shows the natural chain unless it says otherwise.
UniProt P08254: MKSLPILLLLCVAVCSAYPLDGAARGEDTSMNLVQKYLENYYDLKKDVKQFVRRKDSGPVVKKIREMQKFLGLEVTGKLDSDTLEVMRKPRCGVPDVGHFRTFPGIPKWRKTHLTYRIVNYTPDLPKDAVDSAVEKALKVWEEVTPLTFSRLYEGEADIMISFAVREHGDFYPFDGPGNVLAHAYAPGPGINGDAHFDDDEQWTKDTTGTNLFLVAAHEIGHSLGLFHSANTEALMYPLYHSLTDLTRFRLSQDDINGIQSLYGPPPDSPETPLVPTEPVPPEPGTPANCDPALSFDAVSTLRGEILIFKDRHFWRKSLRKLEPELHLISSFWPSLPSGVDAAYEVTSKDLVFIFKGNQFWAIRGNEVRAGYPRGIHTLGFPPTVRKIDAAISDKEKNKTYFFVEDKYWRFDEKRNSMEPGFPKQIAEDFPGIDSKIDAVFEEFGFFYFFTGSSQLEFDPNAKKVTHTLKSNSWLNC
UniProt O15205: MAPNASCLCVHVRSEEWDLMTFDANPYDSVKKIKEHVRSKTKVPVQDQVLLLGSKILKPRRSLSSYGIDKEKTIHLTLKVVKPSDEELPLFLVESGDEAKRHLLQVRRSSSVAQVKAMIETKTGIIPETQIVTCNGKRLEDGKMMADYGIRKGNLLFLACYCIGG

Molecular target: matrix metalloproteinase 3 (MMP3), as in the co-immunoprecipitation of Fig. 4G (UniProt P08254)
Assay: co-IP; cells lysed in chilled RIPA buffer with PMSF; supernatant incubated with 2 μg of the appropriate antibody and 30 μl protein A/G-agarose for 24 h at 4 °C; 4 washes with cold RIPA buffer; Western blot

- binding: binds
Substance: ubiquitin D (UBD), as in the co-immunoprecipitation of Fig. 4G (from UniProt O15205 1-165)

These are yes or no findings as the source states them, for the method shown. Binding seen in cells or lysates may run through a third protein. Binding can be weak; no strength is given.
